The other results are listed elsewhere or left out. Further columns of the screen follow, without active or inactive calls. The list favours compounds with an active or inconclusive main result. Potencies come from curve fits of mixed quality, noted in brackets.
Experiment: qHTS Assay for Modulators of Lamin A Splicing
Details: HeLa LMNA splicing GFP/RFP minigene ratio, 48 h
Procedure, shortened: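 S3 HeLa stable clones carrying a lamin A-EGFP splicing minigene plus DsRed2 were seeded at 600 cells/well in Opti-MEM with 2% FBS, pin-dosed and incubated 48 h at 37°C. Acumen cytometry (488 nm) gave the GFP/RFP total-intensity ratio.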

[1] = measured here: RFP viability control channel
[2] = measured here: GFP splicing reporter channel

Structure (SMILES) | AC50 [1] | AC50 [2]
CCOC(=O)c1[nH]c(C)c(C(=O)C(C)C)c1C | 0.112 µM [falling, full curve, poor fit] | 
COc1ccc(-c2nn(-c3ccc(F)cc3F)c3c2cnc2ccc(F)cc23)cc1 | 14.1 µM [falling, partial curve, poor fit] | 
O=C(/C=C/c1ccc(Cl)cc1Cl)N1CCN(c2ccccc2[N+](=O)[O-])CC1 | 20 µM [rising, single point] | 12.6 µM [rising, single point]
CC(C)NC(=O)COC(=O)/C=C/c1ccc(F)cc1 | 0.0891 µM [rising, full curve, poor fit] | 
COC(=O)c1cn(CCOc2ccccc2F)c2ccccc12 | 25.1 µM [rising, single point] | 35.5 µM [rising, single point]
Cc1cc(C(=O)CSc2nnc(-c3cccc(F)c3)n2N)c(C)n1Cc1ccc2c(c1)OCO2 | 14.1 µM [rising, single point] | 3.98 µM [rising, single point]
Cc1ccc(NC(=O)Cc2c[nH]c3ccccc23)cc1S(=O)(=O)N1CCCCCC1 | 14.1 µM [rising, partial curve] | 
Cc1ccccc1C(=O)Nc1ccc(C(=O)N/N=C/c2ccc(O)c(Br)c2)cc1 | 1.41 µM [falling, full curve, poor fit] | 4.47 µM [falling, partial curve, poor fit]
Cc1cn2c(=O)cc(COC(=O)C(C)Oc3ccccc3)nc2s1 (stereo not given) | 0.0224 µM [falling, full curve, poor fit] | 
COP(=O)(CC(=O)c1ccccc1)CC(=O)c1ccccc1 | 0.00447 µM [rising, full curve, poor fit] | 
CC(CCc1ccccc1)NCC(O)c1ccc(O)c(C(N)=O)c1 (stereo not given) | 0.398 µM [falling, partial curve, poor fit] | 
COc1cccc(/C=C/C(=O)NCCc2ccc(OC)c(OC)c2)c1 | 6.31 µM [falling, single point] | 3.16 µM [falling, partial curve]
O=Cc1cc(N=Nc2ccccc2Cl)ccc1O | 35.5 µM [rising, single point] | 1 µM [falling, partial curve]
CCCCN=C1NN=C(c2cc3ccccc3o2)CS1 | 5.01 µM [rising, partial curve] | 2.51 µM [rising, full curve, poor fit]
CC(C)c1[nH]nc2c1C(C(C)C)C(C#N)=C(N)O2 (stereo not given) | 12.6 µM [rising, partial curve] | 
CCOC(=O)N/N=C/c1cn(CCCOc2ccccc2)c2ccccc12 | 25.1 µM [rising, single point] | 
O=C1CC(c2ccccc2)=Nc2ccc(Br)cc2N1 |  | 0.0158 µM [falling, full curve, poor fit]
COc1ccc(N2CC(NC(=O)c3ccc(S(=O)(=O)N4CCOCC4)cc3)CC2=O)cc1 (stereo not given) | 1.78 µM [falling, partial curve, poor fit] | 0.141 µM [falling, full curve]
CCN(CC)C(=O)C1CCCc2c1[nH]c1ccc(Cl)cc21 (stereo not given) | 5.01 µM [rising, full curve] | 
O=C(N/N=C/c1ccc([N+](=O)[O-])cc1)c1[nH]ncc1Br |  | 1.58 µM [falling, full curve, poor fit]
COCCn1c(=O)c(CCc2ccccc2)nc2cnc(Oc3ccccc3)nc21 |  | 14.1 µM [falling, partial curve]
COc1ccccc1C1C(C#N)=C(N)Oc2c1c(-c1ccccc1)nn2-c1ccccc1 (stereo not given) | 25.1 µM [rising, partial curve] | 
CCc1cc2c(=O)c(-c3ccc4c(c3)OCCO4)coc2c(CN2CCCCC2C)c1O (stereo not given) | 22.4 µM [falling, single point] | 6.31 µM [rising, single point]
COc1ccc(/C=N/NC(=S)Nc2cc(S(=O)(=O)N3CCOCC3)ccc2N2CCOCC2)cc1O |  | 35.5 µM [rising, single point]
Cc1ccc(NS(=O)(=O)c2cc(C(=O)N3CCCC3)ccc2C)cc1C |  | 0.00501 µM [rising, full curve, poor fit]
Cc1ccc(-n2c3c(c(O)c(-c4ccccc4)c2=O)C(=O)CC(C)(C)C3)cc1 | 8.91 µM [rising, partial curve, poor fit] | 11.2 µM [rising, partial curve, poor fit]
CCc1cc2c(Sc3nc4ccccc4s3)ncnc2s1 | 12.6 µM [falling, partial curve] | 11.2 µM [falling, partial curve]

Structure (SMILES) | AC50 [1] | AC50 [2]
O=C(COc1ccc(S(=O)(=O)NC2CCCCC2)cc1Cl)N1CCN(c2ccccc2)CC1 | 14.1 µM [rising, single point] | 
COc1ccc(CCNC(=O)CCCn2c(=O)c3cccn3c3ccc(F)cc32)cc1OC | 8.91 µM [rising, partial curve] | 1 µM [rising, partial curve, poor fit]
CC(C(=O)NC1CCCC1)N(c1ccc(Oc2ccccc2)cc1)S(C)(=O)=O (stereo not given) |  | 35.5 µM [falling, single point]
Cc1[nH]nc(-c2ccc(O)cc2O)c1Oc1ccccc1 | 1 µM [falling, full curve] | 11.2 µM [falling, partial curve, poor fit]
CC(/C=C1\SC(=S)N(CCCC(=O)Nc2ccc(C(=O)O)cc2)C1=O)=C\c1ccccc1 | 14.1 µM [rising, partial curve, poor fit] | 35.5 µM [rising, single point]
CCc1cccc(CC)c1NC(=O)CSc1nc2ccc(N3C(=O)C4C5C=CC(C5)C4C3=O)cc2s1 (stereo not given) | 12.6 µM [rising, single point] | 
COc1ccc(C(=O)C2CCCN(Cc3ccc(C#CCCO)cc3)C2)c(OC)c1 (stereo not given) | 10 µM [falling, partial curve] | 11.2 µM [falling, partial curve]
Cc1ccccc1C(=O)NCc1ccc2c(c1)CCN2C(=O)c1ccc(F)cc1 | 2.51 µM [falling, partial curve, poor fit] | 17.8 µM [falling, single point]
COc1ccc(C(C)=O)cc1COC(=O)c1cc(C)nc2ccccc12 | 1 µM [rising, single point] | 0.501 µM [rising, partial curve]
CC(Nc1nc(N2CCNCC2)nc2ccccc12)c1ccccc1 (stereo not given) |  | 0.00501 µM [falling, full curve, poor fit]
COc1ccccc1-c1nc(C#N)c(N2CCc3ccccc3C2)o1 | 35.5 µM [rising, single point] | 
COc1ccc(C(=O)NC2(C(F)(F)F)NC(=O)N(CCCc3ccccc3)C2=O)cc1OC (stereo not given) | 12.6 µM [rising, partial curve] | 
N#C/C(=N\Nc1cccc(Cl)c1)C(=O)c1ccccc1 | 11.2 µM [rising, partial curve] | 
COc1ccc(OCC(=O)Nn2c(-c3ccc(C)cc3)nc3ccccc3c2=O)cc1 | 22.4 µM [rising, single point] | 
Brc1ccc(C2=Nn3c(nnc3-c3n[nH]c4c3CCC4)SC2)cc1 | 0.562 µM [rising, full curve] | 
COC(=O)c1cnc(N2CCCN(S(=O)(=O)c3ccc(C(F)(F)F)cc3)CC2)nc1C(F)(F)F |  | 0.447 µM [rising, full curve]
CCC(C)c1ccccc1NC(=O)C(C)N(C)Cc1cccc(OC)c1 (stereo not given) | 0.794 µM [falling, full curve, poor fit] | 0.00501 µM [falling, full curve]
Cc1cc(S(=O)(=O)Nc2ccccc2C(=O)O)ccc1Cl | 0.0178 µM [falling, full curve, poor fit] | 
Cc1cc(NC(=O)CN2C(=O)CC(c3ccco3)Sc3ccccc32)no1 (stereo not given) | 20 µM [rising, single point] | 
COc1ccc(NC(=S)NC(NC(=O)c2cccc3ccccc23)C(Cl)(Cl)Cl)c([N+](=O)[O-])c1 (stereo not given) | 14.1 µM [rising, single point] | 
O=C(CCCCCn1c(=O)[nH]c2ccsc2c1=O)N1CCCCC1 | 35.5 µM [rising, single point] | 
Cc1ccccc1NC1=C/C(=N\S(=O)(=O)c2cccs2)c2ccccc2C1=O | 3.16 µM [falling, full curve] | 3.55 µM [falling, full curve]
CC(C)Cn1c(CN(Cc2ccccc2)Cc2ccccc2)nc2c1c(=O)n(C)c(=O)n2C | 35.5 µM [rising, partial curve, poor fit] | 
Cc1ccc2nc(NC(=O)CSc3ncc(C(=O)Nc4ccccc4)c(=O)n3C)sc2c1 | 20 µM [falling, partial curve, poor fit] | 0.0562 µM [falling, partial curve, poor fit]
CCOc1ccccc1N(CC)C(=O)c1cc2ccc3cccnc3c2[nH]1 |  | 11.2 µM [falling, single point]
Cc1ccc(C(=O)n2nc(-n3cccc3)c3c(C)cc(C)nc32)cc1 | 0.0355 µM [falling, full curve, poor fit] | 
COc1cc(Cl)ccc1NC(=S)N(CCCN1CCOCC1)Cc1cn(C)c2ccccc12 | 14.1 µM [rising, partial curve] | 17.8 µM [rising, single point]

Single records, from the list above.
CCOC(=O)c1[nH]c(C)c(C(=O)C(C)C)c1C in the list: AC50 [1]: 0.112 µM [falling, full curve, poor fit]
CCc1cc2c(=O)c(-c3ccc4c(c3)OCCO4)coc2c(CN2CCCCC2C)c1O (stereo not given) in the list: AC50 [1]: 22.4 µM [falling, single point]; AC50 [2]: 6.31 µM [rising, single point]
COc1cccc(/C=C/C(=O)NCCc2ccc(OC)c(OC)c2)c1 in the list: AC50 [1]: 6.31 µM [falling, single point]; AC50 [2]: 3.16 µM [falling, partial curve]
Cc1cc(NC(=O)CN2C(=O)CC(c3ccco3)Sc3ccccc32)no1 (stereo not given) in the list: AC50 [1]: 20 µM [rising, single point]

Source: PubChem BioAssay AID1487 (National Center for Advancing Translational Sciences (NCATS), 2009)
